Reference: the supplement of paper PMC10849652
The other results are listed elsewhere or left out.

Protein sequences, listed by entry. Tags and fused reporters are not part of them. Lines headed by an entry give the natural chain unless they say otherwise; changes in a name come on top.
UniProt Q8IY57: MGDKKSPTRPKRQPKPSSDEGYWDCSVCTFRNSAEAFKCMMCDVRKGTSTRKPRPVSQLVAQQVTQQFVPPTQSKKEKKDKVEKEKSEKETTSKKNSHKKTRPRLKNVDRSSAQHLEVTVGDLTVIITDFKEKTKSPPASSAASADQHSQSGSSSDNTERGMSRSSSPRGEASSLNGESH
UniProt C9J5V9: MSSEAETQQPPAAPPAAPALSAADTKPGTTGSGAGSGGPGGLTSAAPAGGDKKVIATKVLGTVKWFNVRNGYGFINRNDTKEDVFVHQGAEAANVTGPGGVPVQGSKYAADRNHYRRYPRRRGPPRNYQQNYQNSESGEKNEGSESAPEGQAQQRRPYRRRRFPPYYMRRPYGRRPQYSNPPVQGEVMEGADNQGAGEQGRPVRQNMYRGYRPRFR
UniProt O75132: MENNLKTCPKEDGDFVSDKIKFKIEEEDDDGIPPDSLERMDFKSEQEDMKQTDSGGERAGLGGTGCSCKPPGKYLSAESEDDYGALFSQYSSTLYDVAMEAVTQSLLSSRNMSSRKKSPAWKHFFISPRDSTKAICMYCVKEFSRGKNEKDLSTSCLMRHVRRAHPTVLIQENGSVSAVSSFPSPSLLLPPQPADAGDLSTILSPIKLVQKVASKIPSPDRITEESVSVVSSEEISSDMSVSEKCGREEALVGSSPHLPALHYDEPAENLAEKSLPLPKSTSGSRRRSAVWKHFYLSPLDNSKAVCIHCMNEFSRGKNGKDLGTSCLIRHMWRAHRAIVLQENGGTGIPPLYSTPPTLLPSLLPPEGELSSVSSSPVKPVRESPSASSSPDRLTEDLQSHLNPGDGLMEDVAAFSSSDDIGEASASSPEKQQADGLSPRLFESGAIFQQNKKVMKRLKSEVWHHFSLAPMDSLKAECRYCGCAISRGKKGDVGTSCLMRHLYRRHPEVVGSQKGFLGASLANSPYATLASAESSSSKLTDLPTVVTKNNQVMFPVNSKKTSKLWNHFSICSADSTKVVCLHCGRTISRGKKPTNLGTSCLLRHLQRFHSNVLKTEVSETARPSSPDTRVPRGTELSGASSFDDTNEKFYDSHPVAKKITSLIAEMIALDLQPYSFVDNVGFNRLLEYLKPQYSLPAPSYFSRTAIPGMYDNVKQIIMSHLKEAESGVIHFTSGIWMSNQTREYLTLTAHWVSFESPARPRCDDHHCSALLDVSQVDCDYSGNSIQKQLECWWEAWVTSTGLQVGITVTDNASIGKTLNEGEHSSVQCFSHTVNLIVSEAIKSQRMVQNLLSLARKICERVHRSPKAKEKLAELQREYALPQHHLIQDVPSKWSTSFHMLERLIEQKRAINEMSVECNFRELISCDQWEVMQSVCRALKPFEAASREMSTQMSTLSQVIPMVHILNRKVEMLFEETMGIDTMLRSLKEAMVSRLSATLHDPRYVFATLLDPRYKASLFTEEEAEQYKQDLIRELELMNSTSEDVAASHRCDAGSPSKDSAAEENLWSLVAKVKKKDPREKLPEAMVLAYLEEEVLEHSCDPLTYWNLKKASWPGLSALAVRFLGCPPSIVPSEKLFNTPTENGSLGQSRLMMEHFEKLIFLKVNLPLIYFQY
UniProt Q8TBK6: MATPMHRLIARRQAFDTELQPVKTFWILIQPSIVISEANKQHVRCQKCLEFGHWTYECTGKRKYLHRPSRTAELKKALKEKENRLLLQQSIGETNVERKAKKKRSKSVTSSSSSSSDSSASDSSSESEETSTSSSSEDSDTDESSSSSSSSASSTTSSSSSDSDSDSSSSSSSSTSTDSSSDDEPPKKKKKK
UniProt Q8NCP5: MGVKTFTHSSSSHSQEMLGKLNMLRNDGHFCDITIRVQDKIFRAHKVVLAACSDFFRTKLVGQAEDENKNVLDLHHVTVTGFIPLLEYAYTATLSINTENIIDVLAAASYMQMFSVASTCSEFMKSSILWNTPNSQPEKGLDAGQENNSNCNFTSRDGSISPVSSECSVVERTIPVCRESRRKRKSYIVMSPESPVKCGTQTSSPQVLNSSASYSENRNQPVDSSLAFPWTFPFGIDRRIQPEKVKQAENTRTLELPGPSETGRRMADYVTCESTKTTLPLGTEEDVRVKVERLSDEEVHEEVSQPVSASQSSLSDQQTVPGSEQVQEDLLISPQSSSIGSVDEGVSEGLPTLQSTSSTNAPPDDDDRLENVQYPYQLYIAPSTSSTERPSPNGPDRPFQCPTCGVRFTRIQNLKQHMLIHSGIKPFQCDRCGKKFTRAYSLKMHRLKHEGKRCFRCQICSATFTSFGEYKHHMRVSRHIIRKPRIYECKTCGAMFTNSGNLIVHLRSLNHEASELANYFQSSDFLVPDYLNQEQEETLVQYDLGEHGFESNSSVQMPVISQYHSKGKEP
UniProt Q9Y2K1: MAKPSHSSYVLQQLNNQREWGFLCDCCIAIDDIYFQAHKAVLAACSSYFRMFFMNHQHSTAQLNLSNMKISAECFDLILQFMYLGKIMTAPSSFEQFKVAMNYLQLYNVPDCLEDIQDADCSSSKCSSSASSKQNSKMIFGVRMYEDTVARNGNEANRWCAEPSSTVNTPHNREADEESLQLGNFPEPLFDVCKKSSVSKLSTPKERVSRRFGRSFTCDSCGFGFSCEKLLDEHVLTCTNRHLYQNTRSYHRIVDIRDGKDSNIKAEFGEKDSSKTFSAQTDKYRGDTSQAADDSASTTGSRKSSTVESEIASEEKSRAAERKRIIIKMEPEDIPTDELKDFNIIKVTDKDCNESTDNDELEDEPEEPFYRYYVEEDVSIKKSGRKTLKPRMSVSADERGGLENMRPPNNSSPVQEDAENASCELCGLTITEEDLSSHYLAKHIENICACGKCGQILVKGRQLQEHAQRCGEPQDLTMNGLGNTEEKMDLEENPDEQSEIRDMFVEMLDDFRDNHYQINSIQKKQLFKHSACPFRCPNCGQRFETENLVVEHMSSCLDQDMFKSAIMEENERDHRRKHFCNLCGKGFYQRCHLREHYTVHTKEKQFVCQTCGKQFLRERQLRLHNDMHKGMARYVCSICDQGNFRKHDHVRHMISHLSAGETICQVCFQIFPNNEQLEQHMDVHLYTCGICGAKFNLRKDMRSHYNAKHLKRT
UniProt Q5W0Z9: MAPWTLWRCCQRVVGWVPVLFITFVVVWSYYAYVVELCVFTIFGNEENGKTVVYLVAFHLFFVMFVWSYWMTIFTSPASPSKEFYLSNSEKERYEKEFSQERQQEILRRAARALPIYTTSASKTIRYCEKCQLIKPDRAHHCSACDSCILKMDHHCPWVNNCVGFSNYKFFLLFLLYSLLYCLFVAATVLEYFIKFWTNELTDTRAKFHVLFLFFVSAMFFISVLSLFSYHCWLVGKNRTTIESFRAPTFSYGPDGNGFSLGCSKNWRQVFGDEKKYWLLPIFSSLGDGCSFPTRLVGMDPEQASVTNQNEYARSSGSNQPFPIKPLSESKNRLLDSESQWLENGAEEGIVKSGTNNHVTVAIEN
UniProt P17010: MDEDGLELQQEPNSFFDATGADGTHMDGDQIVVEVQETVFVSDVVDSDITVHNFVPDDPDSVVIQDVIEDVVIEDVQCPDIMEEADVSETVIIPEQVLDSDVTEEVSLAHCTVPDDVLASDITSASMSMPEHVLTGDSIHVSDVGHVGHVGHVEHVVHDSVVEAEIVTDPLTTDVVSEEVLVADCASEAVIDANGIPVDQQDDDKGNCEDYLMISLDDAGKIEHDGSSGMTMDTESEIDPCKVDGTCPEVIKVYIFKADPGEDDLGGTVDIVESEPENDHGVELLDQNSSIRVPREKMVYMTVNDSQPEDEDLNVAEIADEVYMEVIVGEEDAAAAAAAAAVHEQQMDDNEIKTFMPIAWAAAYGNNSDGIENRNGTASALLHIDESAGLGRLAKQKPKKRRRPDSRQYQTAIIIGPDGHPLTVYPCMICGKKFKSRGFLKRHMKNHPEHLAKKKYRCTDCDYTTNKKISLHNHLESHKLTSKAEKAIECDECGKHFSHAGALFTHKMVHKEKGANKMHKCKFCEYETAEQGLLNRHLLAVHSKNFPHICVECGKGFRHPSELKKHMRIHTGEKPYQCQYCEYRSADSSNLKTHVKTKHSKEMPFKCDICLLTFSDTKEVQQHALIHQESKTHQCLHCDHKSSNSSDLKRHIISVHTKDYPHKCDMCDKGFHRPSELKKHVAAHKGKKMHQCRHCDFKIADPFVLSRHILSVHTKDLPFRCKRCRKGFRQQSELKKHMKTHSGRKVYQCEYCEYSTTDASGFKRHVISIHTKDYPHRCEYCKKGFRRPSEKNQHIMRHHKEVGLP
UniProt Q8TCF1: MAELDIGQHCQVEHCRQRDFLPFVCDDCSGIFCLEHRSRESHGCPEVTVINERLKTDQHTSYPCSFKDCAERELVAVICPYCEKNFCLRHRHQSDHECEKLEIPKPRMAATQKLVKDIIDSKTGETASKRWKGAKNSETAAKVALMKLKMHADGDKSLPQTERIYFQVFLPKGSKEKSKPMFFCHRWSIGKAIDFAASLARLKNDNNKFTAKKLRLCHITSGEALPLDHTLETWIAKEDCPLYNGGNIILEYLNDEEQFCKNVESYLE
UniProt Q49AG3: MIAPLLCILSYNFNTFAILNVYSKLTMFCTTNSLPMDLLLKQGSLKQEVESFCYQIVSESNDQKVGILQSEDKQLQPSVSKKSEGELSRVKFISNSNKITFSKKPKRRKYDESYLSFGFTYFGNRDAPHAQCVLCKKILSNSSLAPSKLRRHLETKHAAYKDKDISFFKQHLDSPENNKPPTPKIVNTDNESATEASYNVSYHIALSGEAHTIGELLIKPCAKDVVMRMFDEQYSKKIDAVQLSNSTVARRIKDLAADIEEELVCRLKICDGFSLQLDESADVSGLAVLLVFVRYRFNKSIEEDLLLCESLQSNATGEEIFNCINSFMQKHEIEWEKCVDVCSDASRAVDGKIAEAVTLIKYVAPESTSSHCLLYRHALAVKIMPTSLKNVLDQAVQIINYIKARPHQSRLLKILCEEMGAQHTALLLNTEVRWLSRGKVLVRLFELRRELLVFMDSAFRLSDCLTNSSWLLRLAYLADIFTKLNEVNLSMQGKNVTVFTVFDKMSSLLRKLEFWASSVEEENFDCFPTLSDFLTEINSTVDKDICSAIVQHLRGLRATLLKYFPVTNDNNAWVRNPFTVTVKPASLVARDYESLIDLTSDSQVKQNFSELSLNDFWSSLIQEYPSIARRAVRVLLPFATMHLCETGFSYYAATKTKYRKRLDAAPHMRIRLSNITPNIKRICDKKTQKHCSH
UniProt Q8IXZ2: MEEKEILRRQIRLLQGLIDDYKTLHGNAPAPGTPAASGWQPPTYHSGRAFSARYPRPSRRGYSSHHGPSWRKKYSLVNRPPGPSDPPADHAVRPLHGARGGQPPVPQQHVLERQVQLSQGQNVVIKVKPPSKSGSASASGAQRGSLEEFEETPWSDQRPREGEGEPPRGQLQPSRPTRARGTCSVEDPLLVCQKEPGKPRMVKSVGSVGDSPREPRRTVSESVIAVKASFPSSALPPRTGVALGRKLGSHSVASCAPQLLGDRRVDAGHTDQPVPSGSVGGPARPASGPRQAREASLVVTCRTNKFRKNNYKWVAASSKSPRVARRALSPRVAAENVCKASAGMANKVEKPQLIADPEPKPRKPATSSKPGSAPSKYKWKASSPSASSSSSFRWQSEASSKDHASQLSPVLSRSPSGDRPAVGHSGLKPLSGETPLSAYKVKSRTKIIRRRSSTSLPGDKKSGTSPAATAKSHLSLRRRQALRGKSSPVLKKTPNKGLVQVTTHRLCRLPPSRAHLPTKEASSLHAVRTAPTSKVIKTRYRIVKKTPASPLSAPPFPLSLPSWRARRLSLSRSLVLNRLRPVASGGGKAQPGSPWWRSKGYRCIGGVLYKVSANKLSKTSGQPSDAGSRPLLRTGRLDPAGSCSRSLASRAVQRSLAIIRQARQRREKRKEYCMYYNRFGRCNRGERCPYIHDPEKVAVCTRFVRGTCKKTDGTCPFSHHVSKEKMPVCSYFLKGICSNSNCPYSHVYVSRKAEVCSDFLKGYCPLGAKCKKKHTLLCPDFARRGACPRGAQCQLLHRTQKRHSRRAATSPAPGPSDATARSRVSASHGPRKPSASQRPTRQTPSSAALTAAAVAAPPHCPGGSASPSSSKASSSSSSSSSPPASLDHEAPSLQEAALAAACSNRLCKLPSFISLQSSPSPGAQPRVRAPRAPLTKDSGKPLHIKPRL
UniProt Q96K80: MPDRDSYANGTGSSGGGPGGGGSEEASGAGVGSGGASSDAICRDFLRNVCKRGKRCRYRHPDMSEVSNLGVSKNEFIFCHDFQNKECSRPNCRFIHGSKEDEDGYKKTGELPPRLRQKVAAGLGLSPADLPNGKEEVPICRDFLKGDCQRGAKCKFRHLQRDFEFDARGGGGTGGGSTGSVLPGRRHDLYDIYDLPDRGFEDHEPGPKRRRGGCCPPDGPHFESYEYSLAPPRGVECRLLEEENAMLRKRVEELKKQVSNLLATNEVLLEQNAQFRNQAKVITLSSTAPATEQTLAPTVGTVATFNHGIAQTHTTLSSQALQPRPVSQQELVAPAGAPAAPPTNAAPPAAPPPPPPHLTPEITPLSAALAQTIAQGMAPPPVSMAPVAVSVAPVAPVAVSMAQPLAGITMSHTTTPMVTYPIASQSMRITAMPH

Experiments:
Experiment in all cases: log2 fold change, soluble protein after heating vs DMSO (PISA); higher = thermal stabilisation; K562 lysate, 10 uM; active = over 0.2 and 3.5 SD of the protein, either way, in both replicates (recomputed)
dasatinib = compound: Cc1nc(Nc2ncc(C(=O)Nc3c(C)cccc3Cl)s2)cc(N2CCN(CCO)CC2)n1 [dasatinib]
How it was run: (§1)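 Thermal stability, expressed as log-two fold change relative to solvent controls, is given from duplicates. Crude K562 extract in PBS pH 7.4 with 1 mM MgCl2, at 1 mg/mL protein, was treated with 10 μM compound for 30 min and heated in aliquots for 3 min across 48°C-58°C. After pooling, adjustment to 0.5% NP-40 at 4°C and centrifugation at 21,000xg for 90 min, supernatant protein was measured by TMTpro 16plex LC-MS/MS with channel sums equalised.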

[1] = compound: Cn1cc(-c2ccc3c(c2)CCN3C(=O)Cc2cccc(C(F)(F)F)c2)c2c(N)ncnc21
How it was run: as §1

quisinostat = compound: Cn1cc(CNCC2CCN(c3ncc(C(=O)NO)cn3)CC2)c2ccccc21 [quisinostat]
How it was run: as §1

[2] = compound: NC(=O)Nc1cc(-c2cccc(F)c2)sc1C(=O)N[C@H]1CCCNC1
How it was run: as §1

[3] = compound: NC(=O)c1cnc(N[C@@H]2CCCC[C@@H]2N)nc1Nc1cccc(-n2nccn2)c1
How it was run: as §1

[4] = compound: NC1(c2ccc(-c3nc4ccn5c(=O)[nH]nc5c4cc3-c3ccccc3)cc2)CCC1
How it was run: as §1

[5] = compound: NCC(=O)Nc1ccc(-n2nc(C(F)(F)F)cc2-c2ccc3c(ccc4ccccc43)c2)cc1
How it was run: as §1

vorinostat = compound: O=C(CCCCCCC(=O)Nc1ccccc1)NO [vorinostat]
How it was run: as §1

silmitasertib = compound: O=C(O)c1ccc2c(c1)nc(Nc1cccc(Cl)c1)c1ccncc12 [silmitasertib]
How it was run: as §1

[6] = compound: O=C1NC(=O)C(c2cnc3ccccn23)=C1c1cn2c3c(cc(F)cc13)CN(C(=O)N1CCCCC1)CC2
How it was run: as §1

entospletinib = compound: c1cn2cc(-c3ccc4cn[nH]c4c3)nc(Nc3ccc(N4CCOCC4)cc3)c2n1 [entospletinib]
How it was run: as §1

Measured: log2 fold change

ZBTB3 (UniProt Q9H5J0)
inactive: dasatinib -0.097 | [1] 0.02 | quisinostat -0.065 | [2] 0 | [3] 0.058 | [4] 0.024 | [5] -0.073 | vorinostat 0.043 | silmitasertib -0.024 | [6] 0.044 | entospletinib -0.033

ZBTB37 (UniProt Q5TC79)
inactive: quisinostat 0.087 | [2] -0.25 | [6] -0.147

ZC3H14 isoform 11 (UniProt Q6PJT7)
inactive: quisinostat -0.029 | [2] 0.166 | [6] 0.074

ZDHHC13 (UniProt Q8IUH4)
inactive: dasatinib -0.15 | [1] 0.096 | [4] 0.056 | [5] -0.052 | vorinostat 0.125 | silmitasertib 0.099

YWHAZ (UniProt E7ESK7)
inactive: dasatinib -0.085 | [1] -0.059 | quisinostat 0.082 | [2] 0.093 | [3] -0.063 | [4] 0.2 | [5] -0.005 | vorinostat 0.155 | silmitasertib -0.196 | [6] 0.188 | entospletinib -0.134

ZBTB7B isoform 2 (UniProt O15156)
inactive: dasatinib 0.137 | [1] -0.179 | quisinostat -0.088 | [2] -0.018 | [6] 0.057

ZBTB5 (UniProt O15062)
inactive: dasatinib -0.006 | [1] 0.01 | quisinostat -0.062 | [2] 0.022 | [4] -0.024 | [5] -0.139 | vorinostat -0.047 | silmitasertib -0.034 | [6] -0.05 | entospletinib -0.11

YAF2 isoform 5 (UniProt Q8IY57)
inactive: dasatinib 0.091 | [1] -0.129 | quisinostat 0.041 | [2] 0.05 | [3] -0.115 | [4] -0.15 | [5] 0.101 | vorinostat 0.123 | silmitasertib -0.113 | [6] -0.054 | entospletinib -0.031

YWHAZ (UniProt E7EX29)
inactive: [3] -0.191 | entospletinib 0.096

ZFYVE19 isoform 3 (UniProt Q96K21)
inactive: [3] -0.002

Looked up one by one from the list above (three):
ZDHHC13 (UniProt Q8IUH4)
inactive: dasatinib -0.15 | [1] 0.096 | [4] 0.056 | [5] -0.052 | vorinostat 0.125 | silmitasertib 0.099

ZBTB3 (UniProt Q9H5J0)
inactive: dasatinib -0.097 | [1] 0.02 | quisinostat -0.065 | [2] 0 | [3] 0.058 | [4] 0.024 | [5] -0.073 | vorinostat 0.043 | silmitasertib -0.024 | [6] 0.044 | entospletinib -0.033

YAF2 isoform 5 (UniProt Q8IY57)
inactive: dasatinib 0.091 | [1] -0.129 | quisinostat 0.041 | [2] 0.05 | [3] -0.115 | [4] -0.15 | [5] 0.101 | vorinostat 0.123 | silmitasertib -0.113 | [6] -0.054 | entospletinib -0.031

(further entries)

YBX1 (UniProt C9J5V9)
inactive: quisinostat 0.045 | [2] -0.045 | [6] 0.061

ZFP64 isoform 5 (UniProt Q9NTW7)
inactive: quisinostat 0.007 | [2] 0.014 | [3] -0.094 | [6] 0.034 | entospletinib 0.195

YY1AP1 isoform 9 (UniProt Q9H869)
inactive: dasatinib 0.129 | [1] 0.052 | quisinostat 0.017 | [2] 0.154 | [4] -0.103 | vorinostat -0.286 | silmitasertib -0.193 | [6] -0.043 | entospletinib 0.008

XPOT (UniProt F5GYW6)
inactive: [3] -0.192

ZBED4 (UniProt O75132)
inactive: [5] 0.06

ZCCHC10 (UniProt Q8TBK6)
inactive: dasatinib 0.131 | [1] 0.106 | quisinostat 0.101 | [2] -0.414 | [6] 0.197 | entospletinib 0.07

ZBTB44 (UniProt Q8NCP5)
inactive: quisinostat -0.035 | [2] 0.03 | [6] -0.098

ZDHHC12 isoform 3 (UniProt Q96GR4)
inactive: quisinostat 0.037 | [2] -0.064 | [6] 0.032

ZBTB48 (UniProt P10074)
inactive: dasatinib -0.052 | [1] 0.004 | [5] -0.032

ZBTB1 (UniProt Q9Y2K1)
inactive: [3] 0.113 | [4] -0.082 | vorinostat -0.099 | silmitasertib 0.024 | entospletinib 0

ZDHHC20 (UniProt Q5W0Z9)
inactive: dasatinib 0.055 | [1] -0.022 | quisinostat -0.088 | [2] -0.085 | [3] 0.011 | [5] 0.039 | [6] 0.032 | entospletinib 0.022

ZFAND3 (UniProt Q9H8U3)
inactive: dasatinib 0.022 | [1] 0.039 | quisinostat 0.115 | [2] -0.089 | [3] -0.132 | [5] -0.106 | [6] -0.306 | entospletinib -0.032

ZDHHC9 (UniProt Q9Y397)
inactive: quisinostat -0.118 | [2] -0.165 | [4] 0.103 | vorinostat 0.054 | silmitasertib 0.07 | [6] -0.295

YIPF2 (UniProt Q9BWQ6)
inactive: quisinostat -0.013 | [2] -0.007 | [4] 0.085 | vorinostat 0.081 | silmitasertib 0.089 | [6] 0.048

ZFPM2 (UniProt Q8WW38)
inactive: dasatinib 0.045 | [1] -0.09 | quisinostat 0.072 | [2] 0.067 | [4] 0.024 | [5] 0.035 | vorinostat -0.045 | silmitasertib 0.023 | [6] 0.28 | entospletinib 0.05

ZFX isoform 3 (UniProt P17010)
inactive: dasatinib -0.07 | [1] -0.163 | quisinostat 0.225 | [2] -0.051 | [3] 0.019 | [6] 0.017

ZC3H12C isoform 2 (UniProt Q9C0D7)
inactive: dasatinib -0.21 | [1] 0.075 | quisinostat 0.052 | [2] 0.115 | [3] 0.054 | [4] 0.028 | vorinostat -0.368 | silmitasertib -0.035 | [6] 0.06

ZFP92 (UniProt A6NM28)
inactive: [5] -0.064 | entospletinib 0.019

ZFYVE27 isoform 2 (UniProt Q5T4F4)
inactive: dasatinib 0.03 | [1] -0.067 | quisinostat 0.013 | [2] -0.075 | [3] -0.029 | [4] -0.003 | [5] -0.04 | vorinostat -0.209 | silmitasertib 0.028 | [6] -0.096 | entospletinib 0.149

ZBTB34 (UniProt Q8NCN2)
inactive: dasatinib -0.074 | [1] -0.074 | [3] -0.05

YBEY (UniProt P58557)
inactive: dasatinib 0.067 | [1] -0.083 | [4] 0.044 | [5] 0.035 | vorinostat -0.136 | silmitasertib 0.063 | entospletinib 0.029

ZDHHC2 (UniProt Q9UIJ5)
inactive: quisinostat 0.105 | [2] 0.309 | [3] 0.002 | [4] 0.032 | vorinostat 0.327 | silmitasertib 0.215 | [6] -0.05 | entospletinib -0.034

ZBTB17 isoform 2 (UniProt Q13105)
inactive: dasatinib 0.007 | [1] -0.017 | quisinostat 0.022 | [2] 0.187 | [3] -0.001 | [4] 0.017 | vorinostat 0.086 | silmitasertib -0.002 | [6] 0.067

ZFAND1 (UniProt Q8TCF1)
inactive: dasatinib 0.005 | [1] 0.066 | quisinostat 0.121 | [2] -0.036 | [6] -0.078 | entospletinib -0.035

ZBED5 (UniProt Q49AG3)
inactive: dasatinib -0.175 | [1] 0.459 | [4] -0.231 | vorinostat -0.072 | silmitasertib -0.009

ZC4H2 (UniProt Q9NQZ6)
inactive: quisinostat -0.177 | [2] -0.163 | [6] 0.04

ZC3H3 (UniProt Q8IXZ2)
inactive: [3] -0.042

XRCC1 (UniProt F5H8D7)
inactive: dasatinib -0.02 | [1] 0.062 | [4] 0.044 | [5] 0.091 | vorinostat 0.115 | silmitasertib 0.123 | entospletinib -0.064

ZC3H10 (UniProt Q96K80)
inactive: dasatinib 0.046 | [1] -0.049 | quisinostat 0.131 | [2] -0.206 | [6] -0.096
